We go through 31 molecules from the supplement of paper PMC8007513.

The other results are listed elsewhere or left out. Single values are uncertain, as repeats are few or missing.

This test has as its system Saccharomyces cerevisiae BY4743. Kind of test: growth (OD600) with compound + IPBC relative to untreated control; higher = less growth inhibition. The note with it: compound concentration: 133 uM; IPBC concentration: 0.5 ug/ml; 20 h. The method, then:
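NMCCC compounds (133 uM) combined with IPBC (0.5 ug/ml) against Saccharomyces cerevisiae BY4743 in YPD, 96-well plates. Growth was read as OD600 at 20 h and expressed as % of the untreated control. Single pass.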
In the case of `COC1=CC=C2[N]3CC\N=C(NCCO)/C3=CC2=C1` + CCCCNC(=O)OCC#CI [3-iodo-2-propynyl butylcarbamate (IPBC)], the growth worked out at 97.7%. Next, `O=C(CNc1nccs1)c1c[nH]c2ccccc12` + CCCCNC(=O)OCC#CI [3-iodo-2-propynyl butylcarbamate (IPBC)]: 89.8%; `Cc1cc(Cc2ccc(S(=O)(=O)N(C)Cc3ccccc3)cc2)c(O)nn1` + CCCCNC(=O)OCC#CI [3-iodo-2-propynyl butylcarbamate (IPBC)]: 92%; `CCN1CCCC1CNC(=O)c1cnc(SC)nc1-c1ccccc1` (stereo unspecified) + CCCCNC(=O)OCC#CI [3-iodo-2-propynyl butylcarbamate (IPBC)]: 106%.

On to `Nn1c(SCC(=O)NC(=O)NCc2ccccc2)nnc1C1CC1` + CCCCNC(=O)OCC#CI [3-iodo-2-propynyl butylcarbamate (IPBC)], for which the growth came out at 91.6%. In the case of `Nc1nccnc1C(=O)OCc1cc2c(cc1Br)OCCO2` + CCCCNC(=O)OCC#CI [3-iodo-2-propynyl butylcarbamate (IPBC)], the growth was 95.5%. Then `N#Cc1ccc(Oc2ccc(S(=O)(=O)N3CCOCC3)cn2)cc1` + CCCCNC(=O)OCC#CI [3-iodo-2-propynyl butylcarbamate (IPBC)], with 100%. In the case of `Cc1cc(Cl)ccc1Nc1nc(N)c(C(=O)C(C)C)s1` + CCCCNC(=O)OCC#CI [3-iodo-2-propynyl butylcarbamate (IPBC)], the growth stood at 3.81%. Then `COc1ccc(F)cc1-c1csc(Cc2csc(C)n2)n1` + CCCCNC(=O)OCC#CI [3-iodo-2-propynyl butylcarbamate (IPBC)], with 97.7%; and `CCOc1cccc(OCC)c2c(C)[nH+]c(C)c1-2` + CCCCNC(=O)OCC#CI [3-iodo-2-propynyl butylcarbamate (IPBC)], with 80.9%.

On to `Cc1ccc(Cl)cc1N1C(=O)N(C)c2ccccc2S1(=O)=O` + CCCCNC(=O)OCC#CI [3-iodo-2-propynyl butylcarbamate (IPBC)], for which the growth came out at 94.2%. Then `Cc1nc(SC(C)C(=O)N2CCNC2=O)c(C#N)c(C)c1C` (stereo unspecified) + CCCCNC(=O)OCC#CI [3-iodo-2-propynyl butylcarbamate (IPBC)], with 86.5%; and `O=C(COC(=O)C1CCN(C(=O)Nc2ccccc2)CC1)c1ccc(Cl)s1` + CCCCNC(=O)OCC#CI [3-iodo-2-propynyl butylcarbamate (IPBC)], with 94.5%. Next, `N#Cc1ccc(NC(=O)COCC(=O)NCc2ccco2)cc1` + CCCCNC(=O)OCC#CI [3-iodo-2-propynyl butylcarbamate (IPBC)]: 77.6%. Consider `CCOC(=O)Cc1ccc(NC(=O)NCc2c(C)nn(CC)c2C)cc1` + CCCCNC(=O)OCC#CI [3-iodo-2-propynyl butylcarbamate (IPBC)], for which the growth was 100%. Then `CCCCc1ccc(CC(=O)Nc2ccc3c(c2)NC(=O)C(C)O3)cc1` (stereo unspecified) + CCCCNC(=O)OCC#CI [3-iodo-2-propynyl butylcarbamate (IPBC)], with 98.7%; and `CCOC(=O)Cc1csc(SCc2cc(C)no2)n1` + CCCCNC(=O)OCC#CI [3-iodo-2-propynyl butylcarbamate (IPBC)], with 86.8%; and `CCC(C)NC(=O)c1c(-c2ccccc2)nnc2ccc(C)cc12` (stereo unspecified) + CCCCNC(=O)OCC#CI [3-iodo-2-propynyl butylcarbamate (IPBC)], with 116%. Then `CCOC(=O)c1[nH]c(C)c(C(=O)Nc2c(C)cc(C)cc2C)c1C` + CCCCNC(=O)OCC#CI [3-iodo-2-propynyl butylcarbamate (IPBC)], with 103%; and `CCOC1=CC=C(NC(=O)CS\C2=C(/C#N)C(CC(=O)N2)C3=CC=CS3)C=C1` (stereo unspecified) + CCCCNC(=O)OCC#CI [3-iodo-2-propynyl butylcarbamate (IPBC)], with 84.7%; and `CC(Oc1ccc(Cl)cc1C(N)=O)C(=O)Nc1ccc(C#N)cc1` (stereo unspecified) + CCCCNC(=O)OCC#CI [3-iodo-2-propynyl butylcarbamate (IPBC)], with 105%.

Take `Cc1nc2nc(CCc3ccccc3)nn2c(C)c1Cl` + CCCCNC(=O)OCC#CI [3-iodo-2-propynyl butylcarbamate (IPBC)]: the growth amounted to 99.3%. Then `CCC(C)NC(=O)CCc1c(C)nc2nc(-c3cc(OC)cc(OC)c3)nn2c1C` (stereo unspecified) + CCCCNC(=O)OCC#CI [3-iodo-2-propynyl butylcarbamate (IPBC)], with 106%. Then `FC1=CC=CC(=C1)COC2=CC=C(NC(=O)CN3\C=C/C=C\C3=O)C=C2Cl` + CCCCNC(=O)OCC#CI [3-iodo-2-propynyl butylcarbamate (IPBC)], with 106%; and `CCCCN1\C(=N/[S](=O)(=O)C2=CC=CC=C12)SCC(=O)C3=CC=CC=C3` + CCCCNC(=O)OCC#CI [3-iodo-2-propynyl butylcarbamate (IPBC)], with 89.2%; and `Cc1cc(C(=O)N2CCN(C(=O)c3cccs3)CC2)[nH]n1` + CCCCNC(=O)OCC#CI [3-iodo-2-propynyl butylcarbamate (IPBC)], with 116%. Next, `CCOC(=O)C1=C(C)N=C(C)/C(=C(/O)OCC)C1c1ccc(C)o1` (stereo unspecified) + CCCCNC(=O)OCC#CI [3-iodo-2-propynyl butylcarbamate (IPBC)]: 77.7%; `Cc1cc(C)cc(OCC(=O)OC(C)C(=O)Nc2ccccc2C#N)c1` (stereo unspecified) + CCCCNC(=O)OCC#CI [3-iodo-2-propynyl butylcarbamate (IPBC)]: 86.9%. Turning to `Cc1ccc(NC(=O)C(CC(C)C)NS(=O)(=O)c2ccc3c(c2)oc(=O)n3C)c(C)c1` (stereo unspecified) + CCCCNC(=O)OCC#CI [3-iodo-2-propynyl butylcarbamate (IPBC)], the growth amounted to 88.5%. Then `CCOC(=O)c1cc(C)n(-c2ccc(C(=O)N3CCN(C(=O)OCC)CC3)cc2)c1C` + CCCCNC(=O)OCC#CI [3-iodo-2-propynyl butylcarbamate (IPBC)], with 104%; and `CC(C)CNC(=O)N1[C@H](c2cccs2)[C@@H](C)C(=O)[C@@H](C)[C@@H]1c1cccs1` + CCCCNC(=O)OCC#CI [3-iodo-2-propynyl butylcarbamate (IPBC)], with 90.3%.
